This is an account of results in paper PMC7819943, “Rice protein-binding microarrays: a tool to detect cis-acting elements near promoter regions in rice”.

The chains behind the UniProt entries cited, without tags or fusion partners.
UniProt Q0JBA9, entry or part of it: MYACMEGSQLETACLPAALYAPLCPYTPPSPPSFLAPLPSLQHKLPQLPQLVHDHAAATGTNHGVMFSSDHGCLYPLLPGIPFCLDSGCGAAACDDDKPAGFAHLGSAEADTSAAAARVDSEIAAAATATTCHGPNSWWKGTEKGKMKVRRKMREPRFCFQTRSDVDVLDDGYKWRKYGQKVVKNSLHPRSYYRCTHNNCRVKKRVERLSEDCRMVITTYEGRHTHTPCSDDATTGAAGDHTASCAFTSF

The other results are listed elsewhere or left out.

This assay has as its target OsWRKY34 (Oryza sativa, UniProt Q0JBA9 1-250). As to the kind of experiment: protein-binding microarray (RPBM); PBS, 2% BSA, 51.3 ng/ul salmon testes DNA, 50 uM zinc acetate, 200 nM TF, 25 C, 1 h; high values mean tight binding. The conditions noted are these: protein: recombinant; tags: N-terminal polyhistidine and DsRed monomer fusion (pET32a); label: CyDye5-dUTP incorporated in the synthesized complementary strand; 3' TTTTT single-stranded linker to array surface; dsDNA, one strand shown. In outline: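 The binding signal is fluorescence intensity per array feature (arbitrary units). Readings came from an Axon 4000B scanner after a washed, 2% BSA-blocked, double-stranded custom Agilent array had been incubated for 1 h at 25 °C with 200 nM protein and 50 µM zinc acetate. The protein was a Ni–NTA-purified transcription factor fused N-terminally to polyhistidine and DsRed, expressed in E. coli BL21-CodonPlus.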
With “ATGCTAATTTACCGTCTTTCTTGCAATTTTTTCCATCGCTCGGAGTCACCTAGTGCAG”, the binding signal was 13300 fluorescence intensity (a.u.). For “GGCCCGGCCCACTCTCCACTAGCGCTCTCTCTTCTCTTTCCGGAGTCACCTAGTGCAG” the value was 9290 fluorescence intensity (a.u.); for “AAACGTATGGCTGCTCTCTCTCTGCTGATGATCTCTCTCTCGGAGTCACCTAGTGCAG”, 8180 fluorescence intensity (a.u.). Regarding “AATCGTTCTTTTACCATGTTTTCTATTTTACCCTAGTTTTCGGAGTCACCTAGTGCAG”, the binding signal is 10000 fluorescence intensity (a.u.). For “GGCCGATGTGGGGAGGTGGAGGAGGAGAGAGAGGCGGGATCGGAGTCACCTAGTGCAG” the value was 8830 fluorescence intensity (a.u.); for “CTATTGTTCAAGATTTCGTCATGCTTATGACCGCAAAACCCGGAGTCACCTAGTGCAG”, 8040 fluorescence intensity (a.u.); for “CTCTTGTAGTTGTGTGTTGTTGTACCCCGAATCCAATATACGGAGTCACCTAGTGCAG”, 13000 fluorescence intensity (a.u.). On to “CCCTCAACCGCTCGTCCGCGCCCATCAACCGCCAAAGACTCGGAGTCACCTAGTGCAG”, for which the binding signal is 9890 fluorescence intensity (a.u.). For “TTCCTGTTCTATTCTTTCAGCAATGGTTTAGGTCAACACACGGAGTCACCTAGTGCAG” the value was 9430 fluorescence intensity (a.u.); for “CTCCTACTCGTTCTCTATGGTGTGCGTGCTGTTGCTTTTTCGGAGTCACCTAGTGCAG”, 16100 fluorescence intensity (a.u.); for “TGGTAACCACTGTTCTGCTGTTTTGTGCTTTTCTTCTGTCCGGAGTCACCTAGTGCAG”, 12600 fluorescence intensity (a.u.). For “ACATTGGCGCCATTCCCAACGAACTCCTACGTCGTGGCCTCGGAGTCACCTAGTGCAG” the value was 8780 fluorescence intensity (a.u.); for “CGGTGGCTTCCCGCCTCTCCCCGCGCGTTTTCCCGCTTGACGGAGTCACCTAGTGCAG”, 8900 fluorescence intensity (a.u.). With “GTCCAGTAGCGGTTCGTCAGTCCAGACCAGTTCCTAGCTCCGGAGTCACCTAGTGCAG”, the binding signal was 8470 fluorescence intensity (a.u.). In the case of “TCCTCTGGTCTGGCGAGCATTAATCTTTCAGTTTCTAGTACGGAGTCACCTAGTGCAG”, the binding signal is 8170 fluorescence intensity (a.u.). As for “CCAATGTTTCGTTTTGGGTCACACTTGTGCCAATTTTTTTCGGAGTCACCTAGTGCAG”, the binding signal is 9070 fluorescence intensity (a.u.). For “TGGTTATGTGCCACAAATCATATATGCAATTTTGACTATACGGAGTCACCTAGTGCAG” the value was 9270 fluorescence intensity (a.u.). Consider “CCCAGGCGCCTCTCTCTCTCTCTCTAGTTTCTCGCACCACCGGAGTCACCTAGTGCAG”, for which the binding signal is 10400 fluorescence intensity (a.u.). Next, “CGTTATTACGCTGCTTCCTTTGGTCCAACCGCGTGCTCCTCGGAGTCACCTAGTGCAG”: 11200 fluorescence intensity (a.u.). Next, “GCCCACGGCCCGGCACGAAGCCCGCAATTTTGGCCCGGCCCGGAGTCACCTAGTGCAG”: 8080 fluorescence intensity (a.u.). For “AGATTGGGCTTTTTTTTAATGAGGGGTTAGTTCTTAAAAACGGAGTCACCTAGTGCAG” the value was 12500 fluorescence intensity (a.u.); for “AATCAATTTTTTTAAAAAAATATACACATTTCATTATCTTCGGAGTCACCTAGTGCAG”, 9090 fluorescence intensity (a.u.); for “CTGCATTTTATTTAATCCTTTTCCATTTTTTTCTGCATTTCGGAGTCACCTAGTGCAG”, 8290 fluorescence intensity (a.u.).

For the sequence “ATCGCTTGCTTATGAATTCGGGTTGGTTTGTTGTGTGGTACGGAGTCACCTAGTGCAG”, the binding signal is 8630 fluorescence intensity (a.u.). For “CACCTTCCTGACAGTACAGATGCAGAGCTGCTCCCTATAACGGAGTCACCTAGTGCAG”, the binding signal is 8750 fluorescence intensity (a.u.). Next, “CATCCATGATTCCATGGACAGCCAATCTTCTTTGCAGTTTCGGAGTCACCTAGTGCAG”: 8220 fluorescence intensity (a.u.).

Take “CCAAAAATGTTGTGGTATTTAGTTTGTTTAATTTAATTTACGGAGTCACCTAGTGCAG”: the binding signal was 8950 fluorescence intensity (a.u.). For “ACCTTCGCCTTCCGCTTCCTGCAGCCGCCTCTCTCGCAGACGGAGTCACCTAGTGCAG” the value was 9050 fluorescence intensity (a.u.); for “GGGTTCTTGCTAAGGTTTGGTGGTCTTTTCTTTCCCTAGACGGAGTCACCTAGTGCAG”, 12400 fluorescence intensity (a.u.); for “CTCTCCTCGCGGTCGCTTCTCGTCTCGTCCCAATCTACTCCGGAGTCACCTAGTGCAG”, 11700 fluorescence intensity (a.u.). Next, “TTTTCCTGAACGTCACCCCATTTTGTTTCCATGCGGTCCACGGAGTCACCTAGTGCAG”: 8450 fluorescence intensity (a.u.); “GGCTGGGGAAAGTTGGTAGCAACCGAGAAATCGTCCGATCCGGAGTCACCTAGTGCAG”: 8230 fluorescence intensity (a.u.). Regarding “CCCTGCATTCCAAAGCACTCACATTCATTGCCTTTTGAGCCGGAGTCACCTAGTGCAG”, the binding signal was 8630 fluorescence intensity (a.u.). Regarding “ATTACCACTGATGCTGCTTGGTTCGCAATACTTGCTTCTTCGGAGTCACCTAGTGCAG”, the binding signal was 9730 fluorescence intensity (a.u.). Next, “TGCCTGGTTTTTTGGTCCGTTTGTGGGGCCCGCTTTTGTCCGGAGTCACCTAGTGCAG”: 9190 fluorescence intensity (a.u.); “AATTTTAGCATATTGCAACCCATATTGTATCTGTTTTATTCGGAGTCACCTAGTGCAG”: 9340 fluorescence intensity (a.u.); “ATAACTTAATCACATTTCCACACACACTGTTAACTTGAACCGGAGTCACCTAGTGCAG”: 8910 fluorescence intensity (a.u.). Next, “TAAGTTCTAAAATTTTCTTTCTTACCTATTTACGATTTTTCGGAGTCACCTAGTGCAG”: 8760 fluorescence intensity (a.u.); “AAAGTTTAAATTGTCAAAATTTTGTCGTATACTGTCCCTACGGAGTCACCTAGTGCAG”: 8430 fluorescence intensity (a.u.). As to “ATGCATTTTGTCCCATTTCATATCTGTTCAGCATATTTAGCGGAGTCACCTAGTGCAG”, the binding signal was 12500 fluorescence intensity (a.u.). On to “TGCTGTCGCCGCGCCGTCGTCCTGCCATCGCCATCCTCTCCGGAGTCACCTAGTGCAG”, for which the binding signal was 11800 fluorescence intensity (a.u.). Consider “ATTCAGATTTCTACACCCGTGTTGCTGTGTTCTGTCTTCTCGGAGTCACCTAGTGCAG”, for which the binding signal is 8100 fluorescence intensity (a.u.).
